Positions count from the first letter of the chain named. No constants are given. Whether binding was seen depends on the method and setting. In cells and extracts the contact can be indirect.
What was measured:
Test in all cases: cross-linking
[1] = target: T1, FepA A131C (Escherichia coli K-12) (UniProt P05825)
T1 sequence: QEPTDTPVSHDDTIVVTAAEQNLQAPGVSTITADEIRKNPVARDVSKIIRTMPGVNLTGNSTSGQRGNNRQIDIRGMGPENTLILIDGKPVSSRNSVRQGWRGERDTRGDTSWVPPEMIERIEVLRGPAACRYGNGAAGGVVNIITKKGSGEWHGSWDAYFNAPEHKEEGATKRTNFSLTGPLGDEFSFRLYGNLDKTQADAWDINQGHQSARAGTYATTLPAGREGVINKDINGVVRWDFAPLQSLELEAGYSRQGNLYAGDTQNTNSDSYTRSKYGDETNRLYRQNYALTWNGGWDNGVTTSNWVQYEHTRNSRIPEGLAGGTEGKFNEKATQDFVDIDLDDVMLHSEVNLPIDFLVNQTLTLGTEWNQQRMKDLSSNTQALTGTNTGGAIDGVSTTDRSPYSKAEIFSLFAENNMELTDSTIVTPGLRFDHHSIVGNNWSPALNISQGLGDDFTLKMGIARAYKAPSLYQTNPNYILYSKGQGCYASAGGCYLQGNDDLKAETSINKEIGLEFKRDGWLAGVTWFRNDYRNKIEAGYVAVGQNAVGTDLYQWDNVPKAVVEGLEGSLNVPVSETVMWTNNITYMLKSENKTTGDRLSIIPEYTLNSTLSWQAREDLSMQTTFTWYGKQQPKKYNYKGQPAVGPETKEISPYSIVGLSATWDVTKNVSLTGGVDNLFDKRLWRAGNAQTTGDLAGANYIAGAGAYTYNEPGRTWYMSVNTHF

The chains behind the UniProt entries cited, without tags or fusion partners. Where a name states a change or a piece, a line headed by the entry shows the natural chain unless it says otherwise.
UniProt P02929, whole entry, looked up, stated change not applied: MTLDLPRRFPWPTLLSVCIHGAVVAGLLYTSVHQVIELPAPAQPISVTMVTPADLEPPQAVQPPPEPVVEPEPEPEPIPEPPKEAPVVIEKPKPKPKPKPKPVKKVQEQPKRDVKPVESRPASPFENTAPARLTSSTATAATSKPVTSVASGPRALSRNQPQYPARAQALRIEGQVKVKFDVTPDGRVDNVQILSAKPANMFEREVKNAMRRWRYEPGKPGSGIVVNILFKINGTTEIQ

[2] = target: T2, FepA D185C (Escherichia coli K-12) (UniProt P05825)
T2 sequence: T1 sequence with C131A, D185C

[3] = target: T3, FepA L85C (Escherichia coli K-12) (UniProt P05825)
T3 sequence: T1 sequence with L85C, C131A

binding [1] | binding [2] | binding [3] | Substance
no binding | no binding | no binding | TonB C18G R214C (from UniProt P02929 1-239)
no binding | no binding | no binding | TonB C18G R212C (from UniProt P02929 1-239)
no binding | no binding | no binding | TonB C18G M201C (from UniProt P02929 1-239)

Further lines, the substance ahead of its results:

Substance | binding [1] | binding [2] | binding [3]
TonB C18G Q160C (from UniProt P02929 1-239) | no binding | no binding | no binding
TonB C18G A209C (from UniProt P02929 1-239) | no binding | no binding | no binding
TonB C18G V206C (from UniProt P02929 1-239) | no binding | no binding | no binding
TonB C18G N208C (from UniProt P02929 1-239) | no binding | no binding | no binding
TonB C18G R204C (from UniProt P02929 1-239) | no binding | no binding | no binding

Reference: publication doi:10.1101/2021.12.08.471779
